Measured values from PMC8350409.

The chains behind the UniProt entries cited, without tags or fusion partners. Where a name states a change or a piece, a line headed by the entry shows the natural chain unless it says otherwise. A line that says so, or that is headed by a name, gives the form on record, which may keep a tag or linker. Residues count along the entry.
UniProt Q9UJ55: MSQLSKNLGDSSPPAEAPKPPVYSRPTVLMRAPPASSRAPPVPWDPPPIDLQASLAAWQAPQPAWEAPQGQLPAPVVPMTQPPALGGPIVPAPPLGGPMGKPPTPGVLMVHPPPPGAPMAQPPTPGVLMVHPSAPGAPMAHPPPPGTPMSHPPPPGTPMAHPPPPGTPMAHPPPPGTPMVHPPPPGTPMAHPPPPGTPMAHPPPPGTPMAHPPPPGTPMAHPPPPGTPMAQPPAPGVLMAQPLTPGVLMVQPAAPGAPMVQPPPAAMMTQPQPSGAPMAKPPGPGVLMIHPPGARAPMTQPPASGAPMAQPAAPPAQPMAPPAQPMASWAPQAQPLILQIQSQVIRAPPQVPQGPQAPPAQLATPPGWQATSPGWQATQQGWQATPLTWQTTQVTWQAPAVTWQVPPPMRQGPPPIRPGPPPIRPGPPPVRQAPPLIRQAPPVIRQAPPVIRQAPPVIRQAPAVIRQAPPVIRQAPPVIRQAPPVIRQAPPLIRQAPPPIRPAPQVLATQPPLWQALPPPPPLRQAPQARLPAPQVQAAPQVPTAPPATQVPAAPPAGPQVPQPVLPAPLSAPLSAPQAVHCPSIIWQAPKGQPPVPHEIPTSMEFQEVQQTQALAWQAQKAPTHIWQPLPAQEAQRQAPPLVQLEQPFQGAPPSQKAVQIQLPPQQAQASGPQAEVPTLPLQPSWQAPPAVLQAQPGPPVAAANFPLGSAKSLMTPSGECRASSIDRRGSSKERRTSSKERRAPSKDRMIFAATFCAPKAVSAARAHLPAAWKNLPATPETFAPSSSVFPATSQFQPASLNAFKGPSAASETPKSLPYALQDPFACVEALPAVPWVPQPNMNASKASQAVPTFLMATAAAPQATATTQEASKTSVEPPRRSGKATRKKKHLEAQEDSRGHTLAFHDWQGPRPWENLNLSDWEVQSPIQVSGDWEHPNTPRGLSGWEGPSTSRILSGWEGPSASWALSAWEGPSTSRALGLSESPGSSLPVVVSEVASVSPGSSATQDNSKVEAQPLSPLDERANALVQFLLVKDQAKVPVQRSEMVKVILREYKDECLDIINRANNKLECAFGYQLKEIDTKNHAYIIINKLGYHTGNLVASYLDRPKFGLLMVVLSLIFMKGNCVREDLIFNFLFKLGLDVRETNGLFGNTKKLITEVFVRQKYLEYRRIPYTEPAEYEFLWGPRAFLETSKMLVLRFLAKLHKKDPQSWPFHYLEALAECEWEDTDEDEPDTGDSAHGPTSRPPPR
FLAG-BirA*-CtermMAGEL2: residues 605-1249 of Q9UJ55
FLAG-BirA*-CtermMAGEL2p.R1187C (Q9UJ55, form named): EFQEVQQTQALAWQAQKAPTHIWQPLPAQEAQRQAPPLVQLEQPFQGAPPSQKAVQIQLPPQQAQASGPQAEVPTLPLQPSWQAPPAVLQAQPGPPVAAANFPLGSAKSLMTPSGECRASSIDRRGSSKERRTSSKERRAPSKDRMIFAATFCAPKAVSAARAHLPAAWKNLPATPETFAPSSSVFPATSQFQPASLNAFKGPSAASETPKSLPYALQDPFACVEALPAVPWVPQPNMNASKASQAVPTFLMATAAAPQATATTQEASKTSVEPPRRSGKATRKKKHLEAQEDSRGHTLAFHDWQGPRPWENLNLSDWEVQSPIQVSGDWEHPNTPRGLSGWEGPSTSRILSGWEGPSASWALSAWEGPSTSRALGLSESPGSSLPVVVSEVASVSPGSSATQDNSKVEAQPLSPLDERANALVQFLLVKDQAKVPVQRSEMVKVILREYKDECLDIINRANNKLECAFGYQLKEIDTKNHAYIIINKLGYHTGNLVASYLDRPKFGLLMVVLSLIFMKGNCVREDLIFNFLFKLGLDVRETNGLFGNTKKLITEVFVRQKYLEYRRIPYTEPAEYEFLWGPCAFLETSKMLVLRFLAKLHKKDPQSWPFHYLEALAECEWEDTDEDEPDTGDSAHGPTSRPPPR
FLAG-BirA*-CtermMAGEL2p.LL1031AA (Q9UJ55, form named): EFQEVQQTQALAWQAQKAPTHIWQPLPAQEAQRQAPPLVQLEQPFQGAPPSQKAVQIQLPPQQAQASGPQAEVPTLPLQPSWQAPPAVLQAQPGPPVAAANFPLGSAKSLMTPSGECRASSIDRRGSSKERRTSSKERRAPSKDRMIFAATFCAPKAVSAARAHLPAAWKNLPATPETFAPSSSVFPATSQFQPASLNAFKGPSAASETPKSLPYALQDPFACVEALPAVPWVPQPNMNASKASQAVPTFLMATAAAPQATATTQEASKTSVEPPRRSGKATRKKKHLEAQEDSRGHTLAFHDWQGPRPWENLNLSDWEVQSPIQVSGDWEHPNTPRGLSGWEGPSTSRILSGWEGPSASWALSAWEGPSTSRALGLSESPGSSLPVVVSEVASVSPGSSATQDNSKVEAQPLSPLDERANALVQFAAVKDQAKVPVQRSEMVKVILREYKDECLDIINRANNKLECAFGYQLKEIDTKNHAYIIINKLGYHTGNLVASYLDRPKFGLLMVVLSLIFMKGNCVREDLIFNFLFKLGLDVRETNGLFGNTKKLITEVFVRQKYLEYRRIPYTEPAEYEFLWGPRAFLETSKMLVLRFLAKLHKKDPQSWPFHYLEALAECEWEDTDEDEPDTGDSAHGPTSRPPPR
UniProt O00571: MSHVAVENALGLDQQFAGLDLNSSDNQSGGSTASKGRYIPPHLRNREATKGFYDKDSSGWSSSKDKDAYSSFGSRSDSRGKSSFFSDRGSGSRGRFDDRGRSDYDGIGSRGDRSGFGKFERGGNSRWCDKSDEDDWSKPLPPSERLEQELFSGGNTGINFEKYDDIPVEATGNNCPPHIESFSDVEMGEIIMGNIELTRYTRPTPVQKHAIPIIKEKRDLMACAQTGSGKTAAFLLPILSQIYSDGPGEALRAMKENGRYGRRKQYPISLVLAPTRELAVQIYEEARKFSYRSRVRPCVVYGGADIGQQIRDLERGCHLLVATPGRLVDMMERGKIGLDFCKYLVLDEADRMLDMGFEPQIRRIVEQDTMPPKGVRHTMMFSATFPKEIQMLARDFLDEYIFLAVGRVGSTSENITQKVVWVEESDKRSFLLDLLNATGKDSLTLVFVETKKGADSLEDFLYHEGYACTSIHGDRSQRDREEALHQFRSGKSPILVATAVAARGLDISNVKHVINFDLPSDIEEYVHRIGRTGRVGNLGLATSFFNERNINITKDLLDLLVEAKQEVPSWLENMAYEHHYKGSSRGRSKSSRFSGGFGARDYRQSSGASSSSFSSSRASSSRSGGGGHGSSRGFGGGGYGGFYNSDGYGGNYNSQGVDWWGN
UniProt P67809: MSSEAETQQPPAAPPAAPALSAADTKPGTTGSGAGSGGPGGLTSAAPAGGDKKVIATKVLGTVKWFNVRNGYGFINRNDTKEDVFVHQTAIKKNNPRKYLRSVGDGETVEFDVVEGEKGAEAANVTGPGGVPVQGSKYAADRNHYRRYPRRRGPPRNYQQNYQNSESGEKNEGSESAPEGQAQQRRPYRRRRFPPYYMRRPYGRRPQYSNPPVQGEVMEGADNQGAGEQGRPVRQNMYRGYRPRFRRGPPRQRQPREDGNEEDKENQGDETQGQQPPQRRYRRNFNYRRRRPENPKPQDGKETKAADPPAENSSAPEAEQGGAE
UniProt Q14677: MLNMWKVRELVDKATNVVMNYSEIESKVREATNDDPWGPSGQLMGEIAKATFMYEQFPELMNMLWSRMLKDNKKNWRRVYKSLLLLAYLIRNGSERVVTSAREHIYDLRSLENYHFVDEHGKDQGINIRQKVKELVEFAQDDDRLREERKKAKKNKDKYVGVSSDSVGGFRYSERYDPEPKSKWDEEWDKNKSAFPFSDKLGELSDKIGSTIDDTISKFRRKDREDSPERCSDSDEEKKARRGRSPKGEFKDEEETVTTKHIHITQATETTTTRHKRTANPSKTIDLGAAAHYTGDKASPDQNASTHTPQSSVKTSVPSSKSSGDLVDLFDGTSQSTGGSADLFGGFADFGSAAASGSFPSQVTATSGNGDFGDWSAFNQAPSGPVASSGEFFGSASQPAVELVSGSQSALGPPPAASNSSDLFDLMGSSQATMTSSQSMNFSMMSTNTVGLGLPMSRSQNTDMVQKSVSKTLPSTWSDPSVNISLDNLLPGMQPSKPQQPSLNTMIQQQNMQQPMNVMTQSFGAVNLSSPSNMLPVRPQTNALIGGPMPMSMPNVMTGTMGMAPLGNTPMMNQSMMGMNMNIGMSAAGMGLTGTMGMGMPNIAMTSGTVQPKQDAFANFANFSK
UniProt P48634: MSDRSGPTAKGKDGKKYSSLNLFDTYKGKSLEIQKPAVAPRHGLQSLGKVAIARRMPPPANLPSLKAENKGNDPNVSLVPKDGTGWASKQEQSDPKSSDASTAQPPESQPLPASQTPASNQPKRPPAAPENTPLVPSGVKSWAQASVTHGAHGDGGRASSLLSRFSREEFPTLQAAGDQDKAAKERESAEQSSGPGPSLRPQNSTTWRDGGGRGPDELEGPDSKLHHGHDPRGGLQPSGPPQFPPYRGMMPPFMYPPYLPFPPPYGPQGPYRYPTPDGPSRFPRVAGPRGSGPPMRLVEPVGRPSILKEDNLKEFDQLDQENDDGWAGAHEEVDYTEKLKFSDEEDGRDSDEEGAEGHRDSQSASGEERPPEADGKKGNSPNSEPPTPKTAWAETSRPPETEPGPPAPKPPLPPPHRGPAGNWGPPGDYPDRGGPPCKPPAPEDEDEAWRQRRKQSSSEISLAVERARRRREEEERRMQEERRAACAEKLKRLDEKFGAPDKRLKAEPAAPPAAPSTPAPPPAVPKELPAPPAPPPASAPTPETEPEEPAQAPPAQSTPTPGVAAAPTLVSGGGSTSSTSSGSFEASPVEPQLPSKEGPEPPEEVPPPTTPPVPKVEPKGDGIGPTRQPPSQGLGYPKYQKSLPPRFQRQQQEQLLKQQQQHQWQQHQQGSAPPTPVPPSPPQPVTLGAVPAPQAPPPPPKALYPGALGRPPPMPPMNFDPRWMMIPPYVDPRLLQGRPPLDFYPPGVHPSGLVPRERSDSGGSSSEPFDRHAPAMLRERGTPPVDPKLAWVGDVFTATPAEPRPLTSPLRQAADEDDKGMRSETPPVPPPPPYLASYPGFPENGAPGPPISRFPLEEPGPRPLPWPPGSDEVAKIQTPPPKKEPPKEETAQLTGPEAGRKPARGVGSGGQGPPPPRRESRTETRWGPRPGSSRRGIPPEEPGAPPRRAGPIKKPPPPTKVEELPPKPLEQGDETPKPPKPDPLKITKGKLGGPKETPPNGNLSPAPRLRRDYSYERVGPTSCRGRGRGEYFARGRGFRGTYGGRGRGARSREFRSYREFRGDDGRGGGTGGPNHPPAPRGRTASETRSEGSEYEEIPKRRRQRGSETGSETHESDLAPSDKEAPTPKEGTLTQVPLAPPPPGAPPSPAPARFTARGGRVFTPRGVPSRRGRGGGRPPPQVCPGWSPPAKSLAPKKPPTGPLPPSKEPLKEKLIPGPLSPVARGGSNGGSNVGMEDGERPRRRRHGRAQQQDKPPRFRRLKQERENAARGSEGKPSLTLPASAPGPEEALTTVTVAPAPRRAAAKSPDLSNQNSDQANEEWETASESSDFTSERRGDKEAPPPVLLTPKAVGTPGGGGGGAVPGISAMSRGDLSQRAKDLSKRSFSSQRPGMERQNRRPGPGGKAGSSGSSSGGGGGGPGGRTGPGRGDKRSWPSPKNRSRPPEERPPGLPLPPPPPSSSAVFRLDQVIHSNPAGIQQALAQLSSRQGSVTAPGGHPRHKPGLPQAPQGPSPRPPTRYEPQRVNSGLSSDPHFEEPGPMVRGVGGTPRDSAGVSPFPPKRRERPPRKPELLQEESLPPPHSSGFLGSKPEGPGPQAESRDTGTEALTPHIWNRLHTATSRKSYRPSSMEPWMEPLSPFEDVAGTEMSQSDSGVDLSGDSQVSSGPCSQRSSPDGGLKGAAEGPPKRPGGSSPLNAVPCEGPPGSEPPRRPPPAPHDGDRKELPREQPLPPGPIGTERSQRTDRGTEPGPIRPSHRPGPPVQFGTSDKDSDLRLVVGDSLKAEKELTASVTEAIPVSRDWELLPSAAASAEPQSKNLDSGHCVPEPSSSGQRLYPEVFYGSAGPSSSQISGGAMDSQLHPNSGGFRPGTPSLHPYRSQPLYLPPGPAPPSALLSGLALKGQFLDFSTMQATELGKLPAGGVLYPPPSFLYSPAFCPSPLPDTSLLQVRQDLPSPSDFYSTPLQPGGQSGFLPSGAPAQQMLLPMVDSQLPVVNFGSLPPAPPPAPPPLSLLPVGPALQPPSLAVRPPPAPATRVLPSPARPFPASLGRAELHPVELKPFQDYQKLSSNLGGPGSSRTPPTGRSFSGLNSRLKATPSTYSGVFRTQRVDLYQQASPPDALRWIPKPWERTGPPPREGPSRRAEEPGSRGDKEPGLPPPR

B1: NSFL1 cofactor p47 (NSFL1C) (protein, UniProt Q9UNZ2 1-370)
chain: MAAERQEALREFVAVTGAEEDRARFFLESAGWDLQIALASFYEDGGDEDIVTISQATPSSVSRGTAPSDNRVTSFRDLIHDQDEDEEEEEGQRFYAGGSERSGQQIVGPPRKKSPNELVDDLFKGAKEHGAVAVERVTKSPGETSKPRPFAGGGYRLGAAPEEESAYVAGEKRQHSSQDVHVVLKLWKSGFSLDNGELRSYQDPSNAQFLESIRRGEVPAELRRLAHGGQVNLDMEDHRDEDFVKPKGAFKAFTGEGQKLGSTAPQVLSTSSPAQQAENEAKASSSILIDESEPTTNIQIRLADGGRLVQKFNHSHRISDIRLFIVDARPAMAATSFILMTTFPNKELADESQTLKEANLLNAVIVQRLT
B2: SEC24B (protein, UniProt O95487 1-1268)
chain: MSAPAGSSHPAASARIPPKFGGAAVSGAAAPAGPGAGPAPHQQNGPAQNQMQVPSGYGLHHQNYIAPSGHYSQGPGKMTSLPLDTQCGDYYSALYTVPTQNVTPNTVNQQPGAQQLYSRGPPAPHIVGSTLGSFQGAASSASHLHTSASQPYSSFVNHYNSPAMYSASSSVASQGFPSTCGHYAMSTVSNAAYPSVSYPSLPAGDTYGQMFTSQNAPTVRPVKDNSFSGQNTAISHPSPLPPLPSQQHHQQQSLSGYSTLTWSSPGLPSTQDNLIRNHTGSLAVANNNPTITVADSLSCPVMQNVQPPKSSPVVSTVLSGSSGSSSTRTPPTANHPVEPVTSVTQPSELLQQKGVQYGEYVNNQASSAPTPLSSTSDDEEEEEEDEEAGVDSSSTTSSASPMPNSYDALEGGSYPDMLSSSASSPAPDPAPEPDPASAPAPASAPAPVVPQPSKMAKPFGYGYPTLQPGYQNATAPLISGVQPSNPVYSGFQQYPQQYPGVNQLSSSIGGLSLQSSPQPESLRPVNLTQERNILPMTPVWAPVPNLNADLKKLNCSPDSFRCTLTNIPQTQALLNKAKLPLGLLLHPFRDLTQLPVITSNTIVRCRSCRTYINPFVSFIDQRRWKCNLCYRVNDVPEEFMYNPLTRSYGEPHKRPEVQNSTVEFIASSDYMLRPPQPAVYLFVLDVSHNAVEAGYLTILCQSLLENLDKLPGDSRTRIGFMTFDSTIHFYNLQEGLSQPQMLIVSDIDDVFLPTPDSLLVNLYESKELIKDLLNALPNMFTNTRETHSALGPALQAAFKLMSPTGGRVSVFQTQLPSLGAGLLQSREDPNQRSSTKVVQHLGPATDFYKKLALDCSGQQTAVDLFLLSSQYSDLASLACMSKYSAGCIYYYPSFHYTHNPSQAEKLQKDLKRYLTRKIGFEAVMRIRCTKGLSMHTFHGNFFVRSTDLLSLANINPDAGFAVQLSIEESLTDTSLVCFQTALLYTSSKGERRIRVHTLCLPVVSSLADVYAGVDVQAAICLLANMAVDRSVSSSLSDARDALVNAVVDSLSAYGSTVSNLQHSALMAPSSLKLFPLYVLALLKQKAFRTGTSTRLDDRVYAMCQIKSQPLVHLMKMIHPNLYRIDRLTDEGAVHVNDRIVPQPPLQKLSAEKLTREGAFLMDCGSVFYIWVGKGCDNNFIEDVLGYTNFASIPQKMTHLPELDTLSSERARSFITWLRDSRPLSPILHIVKDESPAKAEFFQHLIEDRTEAAFSYYEFLLHVQQQICK
B3: KHSRP (FUBP2) (protein, UniProt Q92945 1-711)
chain: MSDYSTGGPPPGPPPPAGGGGGAGGAGGGPPPGPPGAGDRGGGGPGGGGPGGGSAGGPSQPPGGGGPGIRKDAFADAVQRARQIAAKIGGDAATTVNNSTPDFGFGGQKRQLEDGDQPESKKLASQGDSISSQLGPIHPPPRTSMTEEYRVPDGMVGLIIGRGGEQINKIQQDSGCKVQISPDSGGLPERSVSLTGAPESVQKAKMMLDDIVSRGRGGPPGQFHDNANGGQNGTVQEIMIPAGKAGLVIGKGGETIKQLQERAGVKMILIQDGSQNTNVDKPLRIIGDPYKVQQACEMVMDILRERDQGGFGDRNEYGSRIGGGIDVPVPRHSVGVVIGRSGEMIKKIQNDAGVRIQFKQDDGTGPEKIAHIMGPPDRCEHAARIINDLLQSLRSGPPGPPGGPGMPPGGRGRGRGQGNWGPPGGEMTFSIPTHKCGLVIGRGGENVKAINQQTGAFVEISRQLPPNGDPNFKLFIIRGSPQQIDHAKQLIEEKIEGPLCPVGPGPGGPGPAGPMGPFNPGPFNQGPPGAPPHAGGPPPHQYPPQGWGNTYPQWQPPAPHDPSKAAAAAADPNAAWAAYYSHYYQQPPGPVPGPAPAPAAPPAQGEPPQPPPTGQSDYTKAWEEYYKKIGQQPQQPGAPPQQDYTKAWEEYYKKQAQVATGGGPGAPPGSQPDYSAAWAEYYRQQAAYYGQTPGPGGPQPPPTQQGQQQAQ

What was measured:
Experiment in all cases: proximity labelling; BioID: FLAG-BirA*-MAGEL2 bait (full length, Cterm or mutant Cterm) in stable HEK293 Flp-In T-REx cells, overnight 1 ug/ml tetracycline and 50 uM biotin; lysis in 50 mM Tris HCl, 500 mM NaCl, 0.2% SDS, 2% Triton-X, pH 8.0; biotinylated proteins captured on streptavidin sepharose; LC-MS/MS; CRAPome filtering
[1] = biological target: FLAG-BirA*-MAGEL2 (full-length MAGEL2) (human) (UniProt Q9UJ55)
[2] = biological target: FLAG-BirA*-CtermMAGEL2 (human) (UniProt Q9UJ55)
[3] = biological target: FLAG-BirA*-CtermMAGEL2p.R1187C (human) (UniProt Q9UJ55)
[4] = biological target: FLAG-BirA*-CtermMAGEL2p.LL1031AA (human) (UniProt Q9UJ55)

Molecule	binding [1]	binding [2]	further results
ANKHD1 (from UniProt Q8IWZ3 1-2542)	binds		
glyceraldehyde-3-phosphate dehydrogenase (GAPDH) (from UniProt P04406 1-335) (enzyme)	binds	binds	
talin-1 (TLN1) (from UniProt Q9Y490 1-2541)		binds	
ZFR (from UniProt Q96KR1 1-1074)	binds		
polyadenylate-binding protein 1 (PABPC1) (from UniProt P11940 1-636)	binds		
CRK-like protein (CRKL) (from UniProt P46109 1-303)		binds	binding [3]: binds
YTHDF1 (YTH N6-methyladenosine RNA-binding protein 1) (from UniProt Q9BYJ9 1-559)	binds	no binding	
PKM (from UniProt P14618 1-531) (enzyme)		binds	
DDX3X (from UniProt O00571 1-662)	binds	binds	binding [3]: binds
YBX1 (from UniProt P67809 1-324)		binds	binding [4]: no binding; binding [3]: no binding
adaptor protein crk (CRK) (from UniProt P46108 1-304)			binding [3]: binds
chaperone protein (NUDC) (from UniProt Q9Y266 1-331)	binds		
eukaryotic initiation factor eIF4A1 (from UniProt P60842 1-406)		binds	binding [3]: binds
HNRNPK (from UniProt P61978 1-463)	binds		
CLINT1 (Clathrin interactor 1) (from UniProt Q14677 1-625)	binds		
STE20-like kinase (SLK) (from UniProt Q9H2G2 1-1235) (enzyme)		binds	

Molecule	binding [1]	binding [2]	further results
PRRC2C (from UniProt Q9Y520 1-2896)	binds		
coronin 1B (CORO1B) (from UniProt Q9BR76 1-489)		binds	
Ubiquitin-associated protein 2-like (UBAP2L) (from UniProt Q14157 1-1087)	binds		
ANKRD17 (from UniProt O75179 1-2603)	binds		
TNRC6B (trinucleotide repeat containing adaptor 6B) (from UniProt Q9UPQ9 1-1833)	binds	no binding	
exocyst complex component 4 (EXOC4) (from UniProt Q96A65 1-974)		binds	
YTHDF3 (YTH N6-methyladenosine RNA-binding protein 3) (from UniProt Q7Z739 1-585)	binds	no binding	
TNRC6A (trinucleotide repeat containing adaptor 6A) (from UniProt Q8NDV7 1-1962)	binds	no binding	
ENO1 (from UniProt P06733 1-434) (enzyme)		binds	
FUBP3 (from UniProt Q96I24 1-572)	binds		
PUM1 (Pumilio homolog 1) (from UniProt Q14671 1-1186)	binds		
proline-rich coiled-coil 2 A (PRRC2A) (from UniProt P48634 1-2157)	binds		
eukaryotic initiation factor eIF4G1 (from UniProt Q04637 1-1599)		binds	binding [3]: binds
B1		binds	
B2	binds		
B3	binds		

No constants are given. Whether binding was seen depends on the method and setting. Binding seen in cells or lysates may run through a third protein. A yes stands for co-enrichment or nearness to the bait. Other partners may have been found. For some assays here: A no says only that the protein was not detected with the bait.
